Test results from PubChem BioAssay AID2685 (National Center for Advancing Translational Sciences (NCATS), 2010).
The list shows a part of the results. Shown are side measurements of this screen, not its main read-out; they come without a call. Most of these compounds were active or inconclusive in the main read-out, so they are no random draw. The note in brackets gives the kind of curve behind each potency; many fits are weak.

Assay: qHTS Assay for Lipid Storage Modulators in Drosophila S3 Cells;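 as to cell number change: cells counted by Cell Tracker Red CMTPX staining in the red channel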
Conditions: BODIPY lipid droplet fluorescence, 18-24 h; for cell number change: measured here: cell count max response, cells fed with added oleic acid
How it was run: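 Drosophila S3 cells loaded with oleic acid (400 uM, as added) and compounds at several concentrations; lipid droplets imaged by 488-nm laser-scanning cytometry, 500–530 nm intensity and object ratio to cell channel. Percent activity normalized to 20 uM Triacsin C.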

[1] = measured here: lipid fluorescence (Fed channel) AC50, cells fed with added oleic acid
[2] = measured here: cell number channel AC50, cells fed with added oleic acid

SMILES	cell number change [%]	AC50 [1]	AC50 [2]
O=C(O)C1CCC(CNS(=O)(=O)c2ccccc2)CC1 (stereo unspecified)	-18.1	23.1 µM [falling, single point]	–
Cn1nccc1C(=O)Nc1ccc2c(c1)OCO2	11.4	0.411 µM [rising, full curve]	–
CCCCNC(=O)Cn1cnc2sc(C(=O)OCC)c(C)c2c1=O	-12.6	16.4 µM [rising, single point]	1.3 µM [falling, partial curve]
O=C(NC1CCCc2c1cnn2-c1ccccc1F)c1ccccc1N1CCOCC1 (stereo unspecified)	-49.2	–	16.4 µM [falling, single point]
CC12CS(=O)(=O)CC1SC(=S)N2Cc1ccccc1 (stereo unspecified)	35	32.6 µM [rising, single point]	2.31 µM [rising, full curve]
COc1cccc(NC(=O)c2ccc(S(=O)(=O)N(C)C)cc2)c1	15.7	0.103 µM [falling, full curve, poor fit]	0.103 µM [falling, full curve, poor fit]
COC(=O)c1sc(S(=O)(=O)N2CC(C)OC(C)C2)c(C(=O)OC)c1C (stereo unspecified)	22.7	0.0231 µM [rising, full curve]	–
CCCNC(=O)Cn1cnc2sc(C(=O)Nc3cc(OC)c(OC)c(OC)c3)c(C)c2c1=O	-11.6	–	–
CC(NC(=O)c1nn(C)c2c1CS(=O)(=O)c1ccccc1-2)c1ccccc1 (stereo unspecified)	13.1	29.1 µM [rising, single point]	–
COc1ccc(S(=O)(=O)N(C)CC(=O)NC2CCCC2)cc1Cl	131	3.26 µM [rising, single point]	13 µM [rising, partial curve]
O=C(CCNS(=O)(=O)c1ccc(Cl)cc1)OCC(=O)N1CCN(C(=O)c2ccco2)CC1	-15.5	–	–
CCC1=Nc2cc(C(=O)NCCN3CCCC3)ccc2Sc2ccccc21	-1.91	–	–
CS(=O)(=O)c1ncc(Cl)c(C(=O)Nc2ccc(N3CCOCC3)cc2)n1	-158	29.1 µM [falling, single point]	29.1 µM [falling, single point]
O=C(COc1ccc(Cl)cc1)NCCSc1ccccc1	-3.56	0.00461 µM [rising, full curve, poor fit]	–
CCCS(=O)(=O)c1nc(S(=O)(=O)c2ccc(C)cc2)c(N2CCCC2)s1	11.5	6.51 µM [rising, single point]	–
CC1CCCCC1NC(=O)c1ccco1 (stereo unspecified)	-1.5	14.6 µM [rising, partial curve]	–
CCCCOc1ccc(-c2ncc(C(=O)O)c(C)n2)cc1	-2.54	–	–
CCCCn1c(=O)[nH]c(=O)c2c1nc(-c1ccsc1)n2Cc1ccccc1	-26.3	18.4 µM [falling, single point]	–
COc1ccc(CCNC(=O)C2CCN(C(=O)c3ccc(C(C)(C)C)cc3)CC2)cc1	-49.6	–	6.51 µM [falling, partial curve]
Nc1nc2n(n1)C(c1ccccc1Cl)CC(c1ccc(F)cc1)N2 (stereo unspecified)	-8.39	0.116 µM [falling, full curve, poor fit]	–

SMILES	cell number change [%]	AC50 [1]	AC50 [2]
CCN(CC(=O)Nc1sc2c(c1C#N)CCC(C)C2)Cc1nc2ccccc2c(=O)[nH]1 (stereo unspecified)	20.9	32.6 µM [rising, single point]	–
Cc1cc(C)cc(Oc2nn[nH]n2)c1	23	11.6 µM [rising, partial curve]	–
CSc1ccc(-c2ccco2)nn1	-2.55	6.51 µM [falling, single point]	6.51 µM [falling, single point]
Cc1cc(C)n(-c2nc3c(c(=O)n(C)c(=O)n3C)n2C)n1	9.57	0.116 µM [falling, full curve, poor fit]	–
Cc1ccc(OCCOC(=O)Nc2ccccc2)cc1	29	–	0.13 µM [rising, full curve, poor fit]
O=C(c1sc2ccccc2c1Cl)N(Cc1ccccc1Cl)C1CCS(=O)(=O)C1 (stereo unspecified)	1.15	0.116 µM [rising, full curve, poor fit]	–
COc1ccccc1-n1cnc2cc(NS(=O)(=O)c3ccccc3)ccc21	-19.4	0.651 µM [rising, partial curve]	–
Cc1cc(OCc2cc(C(=O)N3CCN(CC4CC4)CC3)no2)cc(C)c1Cl	-3.07	29.1 µM [falling, single point]	–
O=C1C=C(c2ccc3ncccc3c2)C[C@@H](c2ccc(F)cc2)C1	-13	–	–
CC(C)C(=O)Nc1ccc(NC(=O)c2ccccn2)cn1	-11.6	6.51 µM [falling, single point]	–
Cn1c(C(=O)N2CCN(c3ccc([N+](=O)[O-])cc3)CC2)cc2c(=O)[nH]c3ccccc3c21	-11.7	–	0.517 µM [falling, full curve, poor fit]
Cc1c(C(=O)NCCN2CCOCC2)oc2ccc(S(=O)(=O)N3CCCCCC3)cc12	-10.5	0.184 µM [falling, full curve, poor fit]	–
CC1(C)Cc2nc(Cl)c(C(N)=O)cc2CO1	-13.1	29.1 µM [falling, single point]	–
COCCN(C(=O)c1ccco1)c1nc(-c2ccccc2)cs1	-17.2	0.58 µM [falling, single point]	–
COc1cccc(C(=O)CSc2nc3cccnc3n2C)c1	-43	29.1 µM [falling, single point]	29.1 µM [falling, single point]
Oc1ccc(Br)cc1/C=N/NC(=S)NCCc1ccccc1	-12.6	–	–
Cc1ccc(C)c(CSc2nnc(CCN)o2)c1	–	–	2.91 µM [falling, partial curve]
Cc1ccc(S(=O)(=O)NCC(=O)OCC(=O)N2CCN(C(=O)c3ccco3)CC2)cc1C	-15.6	–	–
Cc1ccc(C2=NS(=O)(=O)N(C)C(C(=O)NCc3ccc(F)cc3)=C2)cc1	-0.288	–	–
COC(=O)c1ccc(NC(=O)Nc2ccc(OC)cc2)cc1	-39.8	29.1 µM [falling, single point]	29.1 µM [falling, single point]

SMILES	cell number change [%]	AC50 [1]	AC50 [2]
O=C(/C=C/c1cn(-c2ccccc2)nc1-c1ccc2c(c1)OCCO2)NCCO	-43.4	32.6 µM [falling, partial curve, poor fit]	32.6 µM [falling, single point]
CCc1cccc(NS(=O)(=O)c2c(C)nc3sc(CC)nn3c2=O)c1	-16.5	–	–
COC(=O)C1=NN(N=O)C2(CC(=O)N(c3cc(C)cc(C)c3)C2=O)C1 (stereo unspecified)	-110	–	18.4 µM [falling, single point]
COc1ccc([N+](=O)[O-])cc1N(CC(=O)NCc1ccco1)S(C)(=O)=O	-2.55	0.651 µM [rising, partial curve, poor fit]	–
Cc1ccc(-n2c(SCC(=O)N3CCOCC3)nnc2-c2cccnc2)cc1C	0.0585	29.1 µM [rising, single point]	–
CC(=O)c1ccc(NC(=O)c2sc3nc(N4CCOCC4)c4c(c3c2N)CCCC4)cc1	-18.3	11.6 µM [falling, single point]	–
Cc1ccccc1CN(C)CCc1ccccn1	-37.3	–	32.6 µM [falling, single point]
COCc1nnc(NC(=O)c2cccc(NC(=O)C(C)C)c2)s1	3.91	0.103 µM [rising, full curve, poor fit]	–
Cc1ccc(-c2cc(C(=O)Nc3cnn(C45CC6CC(CC(C6)C4)C5)c3)no2)cc1	-54.7	32.6 µM [falling, single point]	18.4 µM [falling, partial curve, poor fit]
CCOC(=O)c1cccc(NC(=O)CSc2nnc(C3CCCCC3)n2C)c1	-11.7	–	–
O=C(/C=C/c1c(Cl)cccc1Cl)NCc1ccccc1	1.86	2.06 µM [rising, full curve]	1.64 µM [rising, partial curve]
Fc1cccc(CNc2ncnc3cc(Cl)ccc23)c1F	-36.5	29.1 µM [falling, single point]	29.1 µM [falling, single point]
COC(=O)c1cc(C(=O)c2ccc(Cl)cc2)n2c(=O)/c(=C\N(C)C)sc12	-4.55	29.1 µM [rising, single point]	0.651 µM [rising, partial curve]
COc1ccc(C2=NS(=O)(=O)N(C)C(C(=O)N3CCCCC3)=C2)cc1OC	-14.4	–	–
CCn1cc(/C=C(\NC(=O)c2ccc(C)cc2)C(=O)NCCCN2CCOCC2)c2ccccc21	23.2	29.1 µM [rising, single point]	–
Cc1cc(C(=O)NC2CCCc3c2cnn3-c2cccc(C)c2C)c(C)o1 (stereo unspecified)	-49.4	0.231 µM [falling, single point]	0.206 µM [falling, partial curve]
COc1ccc(N(Cc2ccccc2)S(=O)(=O)c2cccc(C(=O)Nc3ncccc3C)c2)cc1	30.1	23.1 µM [rising, partial curve]	1.46 µM [rising, partial curve]
CCN(CC)C(=O)CSc1nc2ccccc2c(=O)n1OC	-9	3.66 µM [rising, single point]	–
CN(C)CCCN(C(=O)c1ccc(Br)s1)c1nc2cc3c(cc2s1)OCO3	8.9	0.651 µM [rising, full curve, poor fit]	–

Limited to cell number change [%] and AC50 [1], for 3 of the compounds above:
SMILES	cell number change [%]	AC50 [1]
Cn1c(C(=O)N2CCN(c3ccc([N+](=O)[O-])cc3)CC2)cc2c(=O)[nH]c3ccccc3c21	-11.7	–
Cc1c(C(=O)NCCN2CCOCC2)oc2ccc(S(=O)(=O)N3CCCCCC3)cc12	-10.5	0.184 µM [falling, full curve, poor fit]
CC1(C)Cc2nc(Cl)c(C(N)=O)cc2CO1	-13.1	29.1 µM [falling, single point]
